Data taken from ChEMBL document CHEMBL3988442, “University of Dundee, Small-Polar-MMV Screening Library” (2021).

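Viability assay of Plasmodium falciparum sporozoites; the read-out is not stated. The concentration is filed as 10 mM, unlikely as a test dose, so the dose is not known. The record gives no direction; compounds that gave an IC50 in retests scored well above the rest, so higher reads as lower viability. Strong results were mostly tested again. Of about 34,000 compounds tested this way, about 280 (0.84%) reached 50% or more in at least one test.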

Values are the deposited “Percent Effect”, in %. The record does not define 0% and 100%; most values in the screen are far below 50% and negative numbers occur (in some assays of this library far below -100). The compounds are a random part of those screened. Two or more numbers in one place are separate tests of the same structure; such repeats can differ widely.

| Compound | Percent Effect |
|---|---|
| `Cc1ccc2c(c1)C1(CCN(C(N)=O)CC1)CN2CC1CC1` | -5.401 |
| `COc1cc(C)nc(N2CCN(C(=O)CSC)CC2)n1` | 3.134 |
| `CC(NC(=O)NCc1cccc(F)c1)(C(=O)O)c1ccco1` (configuration not stated) | -12.12 |
| `Cc1cnn(C(C)C2CC2)c1NC(=O)c1ccncc1` (configuration not stated) | -5.301 |
| `[H][C@@]12CCN(Cc3cccc(C)n3)[C@@]1([H])CCN2C(=O)c1cnoc1C` | 0 |
| `O=C(O)C(F)(F)F.[H][C@@]12CCN(C(=O)c3ccccn3)[C@]1([H])CCC(=O)N2Cc1csc(C)n1` | 8.586 |
| `CS(=O)(=O)NCCCNC(=O)c1cnc(-c2ccsc2)s1` | -10.05 |
| `COc1ccccc1C1Cn2ccnc2CN1Cc1c[nH]nc1C` (configuration not stated) | -16.42 |
| `Oc1cc(CN2CCCCC2c2cccnc2)nc2c(F)cccc12` (configuration not stated) | -22.76 and -25.93 |
| `Cc1nc(C)n(CC2CCCN(c3ncnc4[nH]ccc34)C2)n1` (configuration not stated) | -6.444 |
| `CCc1nnsc1C(=O)N1CCCN(Cc2cnn(CC)c2)CC1` | 6.243 |
| `O=C(CN1CCCC1CCCO)NCc1ccccn1` (configuration not stated) | -2.059 |
| `CN(Cc1nc2c(cnn2C)c(=O)[nH]1)Cc1ccco1` | -3.513 |
| `CCc1nncn1CCNC(=O)Nc1ccc2c(c1)CCCO2` | -5.006 |
| `COCc1nc(C2CCN(Cc3ncc[nH]3)CC2)no1` | 8.958 |
| `[H][C@@]12COC[C@@H](Cc3nc(C)no3)[C@]1([H])CN(c1cc(OC)ncn1)C2` | 0.6751 |
| `CN1C(=O)CC(C(=O)O)C12CCN(c1ccc3ccccc3n1)CC2` (configuration not stated) | -6 |
| `Cn1c(=O)ccn(CC(=O)N2CCCC(n3cccn3)C2)c1=O` (configuration not stated) | -5.451 |
| `O=C(Nc1ccc(Br)cc1F)c1cc(CN2CCOCC2)on1` | -25.52 |
| `CCOc1ccc(C(=O)N2CCCC2Cn2cc(C)cn2)cn1` (configuration not stated) | 0.3582 |
| `O=C(NCCc1cnccn1)c1cccc(S(=O)(=O)NC2CCOC2)c1` (configuration not stated) | -1.361 |
| `CC(=O)NC1CCCN(C(=O)NCc2ccc(-n3cccn3)cc2)C1` (configuration not stated) | 4.732 |
| `O=C(NCCc1coc(-c2ccc(F)cc2)n1)NC1CC1` | 5.521 |
| `CCC(C)C(=O)NS(=O)(=O)c1ccc(C#N)cc1C(F)(F)F` (configuration not stated) | 7.18 |
| `Cc1cc(N)cc(C2CN(Cc3cc[nH]n3)CCO2)n1` (configuration not stated) | 5.828 |
| `CCOC[C@@H]1CCC[C@]12CN(S(=O)(=O)c1cn(C)cn1)CCO2` | -4.538 |
| `Cc1cccc(C(=O)N2CCCn3c(CN4CCCCC4)nnc3C2)c1` | -12.41 |
| `CNc1nc(CS(=O)(=O)c2ccccc2)cs1` | 8.233 |
| `O=C(O)C(F)(F)F.O=C(O)C(F)(F)F.[H][C@@]12CCCO[C@]1([H])[C@H](OCCCn1cccn1)CN2C1CCOCC1` | 1.686 |
| `Cc1cc(C)c2nc(CNC3CCNC3=O)cc(O)c2c1` (configuration not stated) | -11.15 |
| `CCC(OC)C(=O)N1CCc2nc(NC)nc(C(=O)N3CCCC3)c2C1` (configuration not stated) | -3.461 |
| `[H][C@@]12CN(C(=O)N(C)C)C[C@]1([H])C(=O)NC21CCN(C(=O)NC(C)C)CC1` | 2.053 |
| `CNc1oc(-c2cc(S(=O)(=O)N3CCCCCC3)c(C)o2)nc1C#N` | -7.675 |
| `CC(C)C(=O)NCc1ccc(N(C)C)cc1` | -3.231 |
| `Cc1cnn(C2CCCN(C(=O)C3=NN(C)C(=O)CC3)C2)c1` (configuration not stated) | 17.76 |
| `COc1cccc(F)c1C(=O)N1C[C@@H](CN(C)CCO)[C@@H](CO)C1` | -8.288 |
| `COC(=O)c1ncccc1N1CCN(C(=O)CN2CCOCC2)CC1` | 0.4325 |
| `CN(C)C(=O)N1CCN(Cc2cnc(-c3ccsc3)s2)CC1` | -10.41 |
| `O=C(Cn1c(=O)n(Cc2ccco2)c2ncccc21)NC1CCCCC1` | -3.673 |
| `CCc1noc(CNc2ccc(C(=O)N3CCCC3)cc2C)n1` | 0.4554 |
| `COc1nsc2nc(C3CCCN3c3ncccn3)ccc12` (configuration not stated) | 7.379 |
| `CC(C)(C)c1nnc(CN(Cc2cccs2)CC2CCCO2)o1` (configuration not stated) | 4.042 |
| `Cc1c[nH]c(CN2CCC3(CCCN(Cc4ccc(F)c(F)c4)C3)C2)n1` (configuration not stated) | -7.456 |
| `CCCc1noc(CS(=O)(=O)c2cccc(OC)c2)n1` | -8.768 |
| `CCn1ncnc1C1CC(=O)NCc2nc(N)sc21` (configuration not stated) | 6.446 |
| `CO[C@@H]1CCC[C@@H](NC(=O)C(C)(C)c2cccc(F)c2)[C@H]1O` | -3.61 |
| `Cc1cnn(CC2CCCCN2C(=O)c2c(C)noc2C)c1` (configuration not stated) | 2.603 |
| `Cc1ccc(Cc2cnc(C3CCNCC3)cn2)cc1.Cl` | -1.505 |
| `O=C(Nc1cccc(CNCc2cccs2)c1)C1CCCC1` | -8.883 |
| `Cc1nc(CN2C(=O)CCC23CCN(c2ncccn2)CC3)cs1.O=C(O)C(F)(F)F` | 11.8 and -17.48 and -16.31 |
| `CCCC1CCCN(Cc2csc(-c3cnn(C)c3)n2)CC1` (configuration not stated) | 3.585 and 21.1 and 8.519 |
| `O=C(O)C(F)(F)F.[H][C@@]12CCN(Cc3ccc4c(c3)OCO4)C[C@]1([H])O[C@H](C(=O)N(C)C)C2` | -3.691 |
| `CN1CCN(C2CCN(CCOc3ccccc3)CC2)C1=O` | 2.798 |
| `CN(C)CC(=O)N1CCOCC2(C1)CN(c1ccccc1)C(=O)CO2` (configuration not stated) | -4.437 and -15.64 and -14.84 |
| `Cl.Cl.c1cnc(NCc2cncc3c2CCN(Cc2cccs2)C3)nc1` | -8.42 |
| `O=C(CCn1cc(Cl)cn1)Nc1ncccn1` | 5.005 |
| `C[C@@H]1CN(CC(C)(C)N2CCCCC2)CC[C@@]1(O)C1CC1` | 5.367 |
| `CCc1nc(C2CCCN2C(=O)CCNS(C)(=O)=O)no1` (configuration not stated) | 7.937 |
| `Cc1cnn(CC2CN(Cc3cccnc3)CCO2)c1` (configuration not stated) | -6.831 |
| `CN(CCCNc1cc(N2CCCC2CO)ncn1)S(C)(=O)=O` (configuration not stated) | -10.98 |
| `CN1CC(=O)N(c2ccsc2)CC12CCN(C(=O)CC1CCCC1)C2.O=C(O)C(F)(F)F` (configuration not stated) | -13.2 |
| `COc1cccc(CN2CCOC(c3cnccn3)C2)c1F` (configuration not stated) | 1.963 |
| `O=C(NC1=NCCS1)C1CSCN1C(=O)C1CCCC1` (configuration not stated) | 4.772 |

Some entries from above, unchanged:

{"compound": "CCC(C)C(=O)NS(=O)(=O)c1ccc(C#N)cc1C(F)(F)F", "stereo": "configuration not stated", "Percent Effect": 7.18}
{"compound": "CN(Cc1nc2c(cnn2C)c(=O)[nH]1)Cc1ccco1", "Percent Effect": -3.513}
{"compound": "O=C(O)C(F)(F)F.[H][C@@]12CCN(C(=O)c3ccccn3)[C@]1([H])CCC(=O)N2Cc1csc(C)n1", "Percent Effect": 8.586}
{"compound": "COc1cccc(CN2CCOC(c3cnccn3)C2)c1F", "stereo": "configuration not stated", "Percent Effect": 1.963}
{"compound": "COc1nsc2nc(C3CCCN3c3ncccn3)ccc12", "stereo": "configuration not stated", "Percent Effect": 7.379}
{"compound": "CN(CCCNc1cc(N2CCCC2CO)ncn1)S(C)(=O)=O", "stereo": "configuration not stated", "Percent Effect": -10.98}